PubChem BioAssay AID1224828 | NIAID – 2016
The deposit covers about 17,000 reagents; below is a random part of them. 762 of them (4.5%) count as active. 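Active calls include both raised and lowered p65 entry, mostly lowered; wells with fewer than 50 cells lack a z-score.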 Raw values vary from plate to plate and are shown uncorrected. The numbers tell different reagents against one gene apart. Reagent sequences are not shown.

- Assay: 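Find genes required for NF-kappaB p65 moving into the nucleus after LPS in mouse macrophages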 (primary screen)
- Cells: mouse RAW264.7 G9 macrophage reporter cells (GFP-p65, Tnf promoter-mCherry)
- Reagents: siRNA pool against mouse genes, 100 nM
- Time to read-out: 2 days siRNA transfection, then 40 min LPS before fixation
- Treatment: LPS (Salmonella minnesota R595) at 10 ng/ml
- Read-out: 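Microscopy ratio of nuclear to perinuclear-ring GFP-p65 signal, scaled to the plate median; gene score is the average of two replicate robust z-scores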
- Direction: p65 translocation robust z-score: higher = more nuclear NF-kappaB p65 after LPS than the plate median; nuclear/cytoplasmic p65 ratio: higher = more nuclear NF-kappaB p65
- Hit rule: 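Called active when z exceeds 3.3 or falls under -1.56 (median of Tlr4 controls), giving activity score of at least 50; no calls for control wells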
- Calls: active = hit (p65 shift raised or lowered); inactive = no clear change

Cyp3a13 (cytochrome P450, family 3, subfamily a, polypeptide 13)
- p65 translocation robust z-score: -0.3
- nuclear/cytoplasmic p65 ratio, rep 1: 1.53
- nuclear/cytoplasmic p65 ratio, rep 2: 1.73
- low cell count flag: enough cells to score
- Call: inactive

Ptpdc1 (protein tyrosine phosphatase domain containing 1)
- p65 translocation robust z-score: 0.85
- nuclear/cytoplasmic p65 ratio, rep 1: 1.86
- nuclear/cytoplasmic p65 ratio, rep 2: 1.63
- low cell count flag: enough cells to score
- Call: inactive

Ddx19a (DEAD box helicase 19a)
- p65 translocation robust z-score: 0.67
- nuclear/cytoplasmic p65 ratio, rep 1: 1.68
- nuclear/cytoplasmic p65 ratio, rep 2: 1.63
- low cell count flag: enough cells to score
- Call: inactive

Rab6b (RAB6B, member RAS oncogene family)
- nuclear/cytoplasmic p65 ratio, rep 1: 1.64
- nuclear/cytoplasmic p65 ratio, rep 2: 1.51
- low cell count flag: fewer than 50 cells per well; well left out of scoring
- Call: inactive

Glmp (glycosylated lysosomal membrane protein)
- p65 translocation robust z-score: 0.03
- nuclear/cytoplasmic p65 ratio, rep 1: 1.51
- nuclear/cytoplasmic p65 ratio, rep 2: 1.68
- low cell count flag: enough cells to score
- Call: inactive

Cyp2c70 (cytochrome P450, family 2, subfamily c, polypeptide 70)
- p65 translocation robust z-score: 0.76
- nuclear/cytoplasmic p65 ratio, rep 1: 1.61
- nuclear/cytoplasmic p65 ratio, rep 2: 1.99
- low cell count flag: enough cells to score
- Call: inactive

Klrb1b (killer cell lectin-like receptor subfamily B member 1B) #1
- p65 translocation robust z-score: -1.15
- nuclear/cytoplasmic p65 ratio, rep 1: 1.44
- nuclear/cytoplasmic p65 ratio, rep 2: 1.23
- low cell count flag: enough cells to score
- Call: inactive

Klrb1b (killer cell lectin-like receptor subfamily B member 1B) #2
- p65 translocation robust z-score: 1.48
- nuclear/cytoplasmic p65 ratio, rep 1: 1.71
- nuclear/cytoplasmic p65 ratio, rep 2: 1.67
- low cell count flag: enough cells to score
- Call: inactive

Kif16b (kinesin family member 16B)
- p65 translocation robust z-score: 1.79
- nuclear/cytoplasmic p65 ratio, rep 1: 1.69
- nuclear/cytoplasmic p65 ratio, rep 2: 1.64
- low cell count flag: enough cells to score
- Call: inactive

Cwc15 (CWC15 spliceosome-associated protein)
- p65 translocation robust z-score: 0.22
- nuclear/cytoplasmic p65 ratio, rep 1: 1.53
- nuclear/cytoplasmic p65 ratio, rep 2: 1.28
- low cell count flag: enough cells to score
- Call: inactive

Trim50 (tripartite motif-containing 50)
- p65 translocation robust z-score: 0.98
- nuclear/cytoplasmic p65 ratio, rep 1: 1.52
- nuclear/cytoplasmic p65 ratio, rep 2: 1.22
- low cell count flag: enough cells to score
- Call: inactive

Ppib (peptidylprolyl isomerase B)
- p65 translocation robust z-score: 0.39
- nuclear/cytoplasmic p65 ratio, rep 1: 1.43
- nuclear/cytoplasmic p65 ratio, rep 2: 1.27
- low cell count flag: enough cells to score
- Call: inactive

Or10p1 (olfactory receptor family 10 subfamily P member 1)
- p65 translocation robust z-score: -0.83
- nuclear/cytoplasmic p65 ratio, rep 1: 1.33
- nuclear/cytoplasmic p65 ratio, rep 2: 1.21
- low cell count flag: enough cells to score
- Call: inactive

Gnaz (guanine nucleotide binding protein, alpha z subunit)
- p65 translocation robust z-score: -0.09
- nuclear/cytoplasmic p65 ratio, rep 1: 1.49
- nuclear/cytoplasmic p65 ratio, rep 2: 1.58
- low cell count flag: enough cells to score
- Call: inactive

Gde1 (glycerophosphodiester phosphodiesterase 1)
- nuclear/cytoplasmic p65 ratio, rep 1: 1.62
- nuclear/cytoplasmic p65 ratio, rep 2: 1.4
- low cell count flag: fewer than 50 cells per well; well left out of scoring
- Call: inactive

Il6 (interleukin 6)
- p65 translocation robust z-score: -0.26
- nuclear/cytoplasmic p65 ratio, rep 1: 1.42
- nuclear/cytoplasmic p65 ratio, rep 2: 1.37
- low cell count flag: enough cells to score
- Call: inactive

Continued; the last 3 above are carried over.
Gnaz (guanine nucleotide binding protein, alpha z subunit)
- p65 translocation robust z-score: -0.09
- nuclear/cytoplasmic p65 ratio, rep 1: 1.49
- nuclear/cytoplasmic p65 ratio, rep 2: 1.58
- low cell count flag: enough cells to score
- Call: inactive

Gde1 (glycerophosphodiester phosphodiesterase 1)
- nuclear/cytoplasmic p65 ratio, rep 1: 1.62
- nuclear/cytoplasmic p65 ratio, rep 2: 1.4
- low cell count flag: fewer than 50 cells per well; well left out of scoring
- Call: inactive

Il6 (interleukin 6)
- p65 translocation robust z-score: -0.26
- nuclear/cytoplasmic p65 ratio, rep 1: 1.42
- nuclear/cytoplasmic p65 ratio, rep 2: 1.37
- low cell count flag: enough cells to score
- Call: inactive

Ccdc91 (coiled-coil domain containing 91)
- p65 translocation robust z-score: -0.03
- nuclear/cytoplasmic p65 ratio, rep 1: 1.35
- nuclear/cytoplasmic p65 ratio, rep 2: 1.42
- low cell count flag: enough cells to score
- Call: inactive

Ndufa3 (NADH:ubiquinone oxidoreductase subunit A3)
- p65 translocation robust z-score: 0.09
- nuclear/cytoplasmic p65 ratio, rep 1: 1.81
- nuclear/cytoplasmic p65 ratio, rep 2: 1.6
- low cell count flag: enough cells to score
- Call: inactive

Olfml1 (olfactomedin-like 1)
- nuclear/cytoplasmic p65 ratio, rep 1: 1.87
- nuclear/cytoplasmic p65 ratio, rep 2: 1.86
- low cell count flag: fewer than 50 cells per well; well left out of scoring
- Call: inactive

Tmem11 (transmembrane protein 11)
- p65 translocation robust z-score: -0.67
- nuclear/cytoplasmic p65 ratio, rep 1: 1.38
- nuclear/cytoplasmic p65 ratio, rep 2: 1.51
- low cell count flag: enough cells to score
- Call: inactive

Or2r3 (olfactory receptor family 2 subfamily R member 3)
- p65 translocation robust z-score: 0.7
- nuclear/cytoplasmic p65 ratio, rep 1: 1.41
- nuclear/cytoplasmic p65 ratio, rep 2: 1.35
- low cell count flag: enough cells to score
- Call: inactive

Ppara (peroxisome proliferator activated receptor alpha)
- p65 translocation robust z-score: 0.14
- nuclear/cytoplasmic p65 ratio, rep 1: 1.36
- nuclear/cytoplasmic p65 ratio, rep 2: 1.27
- low cell count flag: enough cells to score
- Call: inactive

Syt6 (synaptotagmin VI)
- p65 translocation robust z-score: -0.58
- nuclear/cytoplasmic p65 ratio, rep 1: 1.39
- nuclear/cytoplasmic p65 ratio, rep 2: 1.13
- low cell count flag: enough cells to score
- Call: inactive

Phb1 (prohibitin 1)
- p65 translocation robust z-score: -1.42
- nuclear/cytoplasmic p65 ratio, rep 1: 1.33
- nuclear/cytoplasmic p65 ratio, rep 2: 1.2
- low cell count flag: enough cells to score
- Call: inactive

Xcl1 (chemokine (C motif) ligand 1)
- p65 translocation robust z-score: 0.02
- nuclear/cytoplasmic p65 ratio, rep 1: 1.59
- nuclear/cytoplasmic p65 ratio, rep 2: 1.43
- low cell count flag: enough cells to score
- Call: inactive

Cul3 (cullin 3)
- p65 translocation robust z-score: 1.88
- nuclear/cytoplasmic p65 ratio, rep 1: 1.69
- nuclear/cytoplasmic p65 ratio, rep 2: 1.65
- low cell count flag: enough cells to score
- Call: inactive

Or6c3b (olfactory receptor family 6 subfamily C member 3B)
- nuclear/cytoplasmic p65 ratio, rep 1: 1.41
- nuclear/cytoplasmic p65 ratio, rep 2: 0.875
- low cell count flag: fewer than 50 cells per well; well left out of scoring
- Call: inactive
